According to patent publication US8258259B2 (Starpharma Pty Limited, priority 2005, dated 2012):

Assay: general procedure: solution-phase peptide synthesis; PyBOP/DIPEA; PNP active esters (PNPO-Lys) with TEA
Details: late stage modification step, sodium salt (final), TFA salt (amine intermediates)

BHALys[Lys]2[GlyLys]4[Lys]8[α,α-NH2.TFA]4[α,ε-NH2.TFA]4[ε,α-COC5H12]4[ε,ε-COC5H12]4
step yield (two steps): 80% for two steps

BHALys[Lys]2[GlyLys]4[Lys]8[α,α-COCH2O-3,6-Naph(SO3Na)2]4[α,ε-COCH2O-3,6-Naph(SO3Na)2]4[ε,α-COC5H12]4[ε,ε-COC5H12]4
step yield: 18%

BHALys[GlyLys]2[Lys]4[α,α-COCH2O-3,6-Naph(SO3Na)2]2[α,ε-COCH2O-3,6-Naph(SO3Na)2]2[ε,α-COC5H12]2[ε,ε-COC5H12]2
step yield: 34%

BHALys[GlyLys]2[Lys]4[NH2.TFA]6[ε,ε-CBz]2
step yield: 92%

BHALys[GlyLys]2[Lys]4[α,α-Boc]2[ε,α-COCH2O-3,6-Naph(SO3Na)2]2[ε,ε-COCH2O-3,6-Naph(SO3Na)2]2
step yield: 27%

BHALys[GlyLys]2[Lys]4[α,α-NH2.TFA]2[α,ε-NH2.TFA]2[ε,α-COC5H12]2[ε,ε-COC5H12]2
step yield (two steps): 47% for two steps

BHALys[Lys]2[α,ε-Lys][CBz]2[Lys]3 [COCH2O-3,6-Naph(SO3Na)2]6
step yield: 7%

BHALys[Lys]2[α,ε-Lys][COCH2O-3,6-Naph(SO3Na)2]2[Lys]3 [Boc]6
step yield: 53%

BHALys[GlyLys]2[Lys]4[COCH2O-3,6-Naph(SO3Na)2]6 [ε,ε-CBz]2
step yield: 42%

BHALys[Lys]2[GlyLys]4[Lys]8[α,α-Boc]4[α,ε-Boc]4[ε,α-COCH2O-3,6-Naph(SO3Na)2]4 [ε,ε-COCH2O-3,6-Naph(SO3Na)2]4
step yield: 38%

BHALys[Lys]2[α,ε-Lys][CBz]2[Lys]3 [NH2.TFA]6
step yield: 99%
